These are yes or no findings as the source states them, for the method shown. Some binding calls cover weakened binding; strength is not graded here.
Biological target: Cell Expressed OX40L (CHO/MEF) (human) (UniProt P23510)
Experiment: flow cytometry (FACS) on CHO-S cells expressing hOX40L

Chains of the proteins cited; added tags and fusions are not shown. Lines headed by an entry give the natural chain unless they say otherwise; changes in a name come on top.
UniProt P23510: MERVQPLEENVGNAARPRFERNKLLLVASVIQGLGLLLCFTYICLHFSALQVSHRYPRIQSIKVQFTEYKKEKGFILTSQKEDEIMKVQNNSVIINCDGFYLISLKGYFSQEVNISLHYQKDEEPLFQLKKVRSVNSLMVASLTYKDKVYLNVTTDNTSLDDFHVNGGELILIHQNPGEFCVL

| binding | Binder |
| --- | --- |
| binds | 9H04 (hybridoma) (antibody, V domains shown) VH: QVQLVESGGGLVKPGGSLRLSCAASRFTLSDYYMTWIRQAPGKGLEWVSYISSSGNTIYYADSVKGRFTISRDNAKNSLYLQMNSLRAEDTAVYYCARDLSGSYWDYYYGMDVWGQGTTVTVSS VL: AIQLTQSPSSLSTSVGDRVTIACRASQGINNALAWYQQKPGKAPKLLIYDASSLESGVPSRFSGSGSGTDFTLTISSLQPEDFATYYCQQFNSYPRTFGQGTKVEIK |
| binds | 10A07 (hybridoma) (antibody, V domains shown) VH: EVQLVESGGVLVQPGGSLRLSCAASGFTFSSYIMTWVRQAPGKGLEWVSGISGSGGGTYYADSMKGRFTISRDNSKNTLYLQMNSLRVEDTAVYYCAKDRLGPITLVRGGYYYGMDVWGQGTTVTVSS VL: DIQMTQSPSSLSASVGDRVTITCRASQSISDYLNWYQQKPGKAPKFLIYAASSLQSGVPSRFSGSGSGTDFTLTVSSLQPEDFATYYCQQSYSTPRTFGQGTRVEIK |
| binds | 2D10 (hybridoma) (antibody, V domains shown) VH: EVQLVESGGGLVQPGGSLRLSCAASGFTFSNYAMNWVRQAPGKGLEWVSTISGSGGATRYADSVKGRFTISRDNSRNTVYLQMNSLRVEDTAVFYCTKDRLIMATVRGPYYYGMDVWGQGTTVTVSS VL: DIQMTQSPSSLSASVGDRVTITCRASQSISSYLNWYQQKPGKAPNLLIYAASSLQSGVPSRFSGSGSETDFTLTISSLQPEDFATYYCQQSHSVSFTFGPGTKVDIK |

Reference: patent US20190275084A1
